Laboratory results: article PMC7566517
No constants are given. Whether binding was seen depends on the method and setting. Sequences can lack the tags named with a protein.

Target: NRG1-MFc fusion protein (NRG1 EGF domain fused with monomeric Fc) (human) (UniProt Q02297)
Experiment: SEC-MALS; analytical SEC-MALS after single-step protein A purification; both purified

binding: no binding
B1: NRG1-MFc fusion protein (NRG1 EGF domain fused with monomeric Fc) (Fc fusion, UniProt Q02297-6 175-229)
chain: GTSHLVKCAEKEKTFCVNGGECFMVKDLSNPSRYLCKCPNEFTGDRCQNYVMASF
